# Some of the results follow.
# What was measured:
# Experiment in all cases: glycan array binding signal (z-score within array); higher = stronger binding
# Conditions in all cases: glycan notation: IUPAC condensed, linker removed
# [1] = molecular target: Gal(b1-4)GlcNAc(b1-3)Gal(b1-4)GlcNAc(b1-2)[Gal(b1-4)GlcNAc(b1-3)Gal(b1-4)GlcNAc(b1-6)]Man(a1-6)[Gal(b1-4)GlcNAc(b1-3)Gal(b1-4)GlcNAc(b1-2)Man(a1-3)]Man(b1-4)GlcNAc(b1-4)GlcNAc
# How it was run: (§1)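 Glycan array data were curated from 3228 arrays in the Consortium for Functional Glycomics database and kept only where the protein sequence was available. Glycan names were converted to IUPAC-condensed notation, and columns mapping to the same glycan were averaged. The binding signal is a within-array Z-score, averaged across arrays of the same protein sequence at different concentrations or buffers and across linkers. Negative Z-scores can be read as non-binding.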
# [2] = molecular target: Gal(b1-4)GlcNAc(b1-3)Gal(b1-4)GlcNAc(b1-2)[Gal(b1-4)GlcNAc(b1-3)Gal(b1-4)GlcNAc(b1-6)]Man(a1-6)[Gal(b1-4)GlcNAc(b1-3)Gal(b1-4)GlcNAc(b1-2)Man(a1-3)]Man(b1-4)GlcNAc(b1-4)[Fuc(a1-6)]GlcNAc
# How it was run: as §1
# [3] = molecular target: Gal(b1-4)GlcNAc(b1-3)Gal(b1-4)GlcNAc(b1-3)Gal(b1-4)GlcNAc
# How it was run: as §1
# [4] = molecular target: Gal(b1-4)GlcNAc(b1-3)Gal(b1-4)GlcNAc(b1-3)Gal(b1-4)GlcNAc(b1-2)Man(a1-3)[Gal(b1-4)GlcNAc(b1-3)Gal(b1-4)GlcNAc(b1-3)Gal(b1-4)GlcNAc(b1-2)Man(a1-6)]Man(b1-4)GlcNAc(b1-4)GlcNAc
# How it was run: as §1
# [5] = molecular target: Gal(b1-4)GlcNAc(b1-3)Gal(b1-4)GlcNAc(b1-3)Gal(b1-4)GlcNAc(b1-2)Man(a1-3)[Gal(b1-4)GlcNAc(b1-3)Gal(b1-4)GlcNAc(b1-3)Gal(b1-4)GlcNAc(b1-2)Man(a1-6)]Man(b1-4)GlcNAc(b1-4)[Fuc(a1-6)]GlcNAc
# How it was run: as §1
# [6] = molecular target: Gal(b1-4)GlcNAc(b1-3)Gal(b1-4)GlcNAc(b1-3)Gal(b1-4)GlcNAc(b1-2)[Gal(b1-4)GlcNAc(b1-3)Gal(b1-4)GlcNAc(b1-3)Gal(b1-4)GlcNAc(b1-6)]Man(a1-6)[Gal(b1-4)GlcNAc(b1-3)Gal(b1-4)GlcNAc(b1-3)Gal(b1-4)GlcNAc(b1-2)Man(a1-3)]Man(b1-4)GlcNAc(b1-4)[Fuc(a1-6)]GlcNAc
# How it was run: as §1
# [7] = molecular target: Gal(b1-4)GlcNAc(b1-3)Gal(b1-4)GlcNAc(b1-3)Gal(b1-4)GlcNAc(b1-3)Gal(b1-4)GlcNAc(b1-2)Man(a1-3)[Gal(b1-4)GlcNAc(b1-3)Gal(b1-4)GlcNAc(b1-3)Gal(b1-4)GlcNAc(b1-3)Gal(b1-4)GlcNAc(b1-2)Man(a1-6)]Man(b1-4)GlcNAc(b1-4)GlcNAc
# How it was run: as §1
# [8] = molecular target: Gal(b1-4)GlcNAc(b1-3)Gal(b1-4)GlcNAc(b1-3)Gal(b1-4)GlcNAc(b1-3)Gal(b1-4)GlcNAc(b1-2)Man(a1-3)[Gal(b1-4)GlcNAc(b1-3)Gal(b1-4)GlcNAc(b1-3)Gal(b1-4)GlcNAc(b1-3)Gal(b1-4)GlcNAc(b1-2)Man(a1-6)]Man(b1-4)GlcNAc(b1-4)[Fuc(a1-6)]GlcNAc
# How it was run: as §1
# [9] = molecular target: Gal(b1-4)GlcNAc(b1-3)Gal(b1-4)GlcNAc(b1-3)Gal(b1-4)GlcNAc(b1-3)Gal(b1-4)GlcNAc(b1-2)[Gal(b1-4)GlcNAc(b1-3)Gal(b1-4)GlcNAc(b1-3)Gal(b1-4)GlcNAc(b1-3)Gal(b1-4)GlcNAc(b1-6)]Man(a1-6)[Gal(b1-4)GlcNAc(b1-3)Gal(b1-4)GlcNAc(b1-3)Gal(b1-4)GlcNAc(b1-3)Gal(b1-4)GlcNAc(b1-2)Man(a1-3)]Man(b1-4)GlcNAc(b1-4)[Fuc(a1-6)]GlcNAc
# How it was run: as §1
# [10] = molecular target: Gal(b1-4)GlcNAc(b1-3)Gal(b1-4)GlcNAc(b1-3)Gal(b1-4)GlcNAc(b1-3)Gal(b1-4)GlcNAc(b1-3)Gal(b1-4)GlcNAc(b1-2)Man(a1-3)[Gal(b1-4)GlcNAc(b1-3)Gal(b1-4)GlcNAc(b1-3)Gal(b1-4)GlcNAc(b1-3)Gal(b1-4)GlcNAc(b1-3)Gal(b1-4)GlcNAc(b1-2)Man(a1-6)]Man(b1-4)GlcNAc(b1-4)GlcNAc
# How it was run: as §1
# [11] = molecular target: Gal(b1-4)GlcNAc(b1-3)Gal(b1-4)GlcNAc(b1-3)Gal(b1-4)GlcNAc(b1-3)Gal(b1-4)GlcNAc(b1-3)Gal(b1-4)GlcNAc(b1-2)Man(a1-3)[Gal(b1-4)GlcNAc(b1-3)Gal(b1-4)GlcNAc(b1-3)Gal(b1-4)GlcNAc(b1-3)Gal(b1-4)GlcNAc(b1-3)Gal(b1-4)GlcNAc(b1-2)Man(a1-6)]Man(b1-4)GlcNAc(b1-4)[Fuc(a1-6)]GlcNAc
# How it was run: as §1
# [12] = molecular target: Gal(b1-4)GlcNAc(b1-3)Gal(b1-4)GlcNAc(b1-3)Gal(b1-4)GlcNAc(b1-3)Gal(b1-4)GlcNAc(b1-3)Gal(b1-4)GlcNAc(b1-2)[Gal(b1-4)GlcNAc(b1-3)Gal(b1-4)GlcNAc(b1-3)Gal(b1-4)GlcNAc(b1-3)Gal(b1-4)GlcNAc(b1-3)Gal(b1-4)GlcNAc(b1-6)]Man(a1-6)[Gal(b1-4)GlcNAc(b1-3)Gal(b1-4)GlcNAc(b1-3)Gal(b1-4)GlcNAc(b1-3)Gal(b1-4)GlcNAc(b1-3)Gal(b1-4)GlcNAc(b1-2)Man(a1-3)]Man(b1-4)GlcNAc(b1-4)[Fuc(a1-6)]GlcNAc
# How it was run: as §1
# [13] = molecular target: Gal(b1-4)GlcNAc(b1-3)Gal(b1-4)GlcNAc(b1-3)Gal(b1-4)GlcNAc(b1-3)Gal(b1-4)GlcNAc(b1-3)Gal(b1-4)GlcNAc(b1-3)Gal(b1-4)GlcNAc(b1-2)Man(a1-3)[Gal(b1-4)GlcNAc(b1-3)Gal(b1-4)GlcNAc(b1-3)Gal(b1-4)GlcNAc(b1-3)Gal(b1-4)GlcNAc(b1-3)Gal(b1-4)GlcNAc(b1-3)Gal(b1-4)GlcNAc(b1-2)Man(a1-6)]Man(b1-4)GlcNAc(b1-4)GlcNAc
# How it was run: as §1
# [14] = molecular target: Gal(b1-4)GlcNAc(b1-3)Gal(b1-4)GlcNAc(b1-3)GalNAc
# How it was run: as §1
# [15] = molecular target: Gal(b1-4)GlcNAc(b1-3)Gal(b1-4)GlcNAc(b1-3)[Gal(b1-4)GlcNAc(b1-3)Gal(b1-4)GlcNAc(b1-6)]GalNAc
# How it was run: as §1
# [16] = molecular target: Gal(b1-4)GlcNAc(b1-3)Gal(b1-4)GlcNAc(b1-6)[Gal(b1-3)]GalNAc
# How it was run: as §1
# [17] = molecular target: Gal(b1-4)GlcNAc(b1-3)Gal(b1-4)[Fuc(a1-3)]GlcNAc(b1-3)Gal(b1-4)[Fuc(a1-3)]GlcNAc
# How it was run: as §1
# [18] = molecular target: Gal(b1-4)GlcNAc(b1-3)GalNAc
# How it was run: as §1
# [19] = molecular target: Gal(b1-4)GlcNAc(b1-3)[Fuc(a1-3)GlcNAc(b1-6)]Gal(b1-4)Glc
# How it was run: as §1
# [20] = molecular target: Gal(b1-4)GlcNAc(b1-3)[Gal(b1-4)GlcNAc(b1-6)]Gal(b1-4)GlcNAc
# How it was run: as §1
# [21] = molecular target: Gal(b1-4)GlcNAc(b1-3)[GlcNAc(b1-6)]Gal(b1-4)GlcNAc
# How it was run: as §1
# [22] = molecular target: Gal(b1-4)GlcNAc(b1-6)Gal(b1-4)GlcNAc
# How it was run: as §1
binder,measurement,setting,value
"YghJ (Escherichia coli), E3PJ90 (protein) MNKKFKYKKSLLAAILSATLLAGCDGGGSGSSSDTPPVDSGTGSLPEVKPDPTPNPEPTPEPTPDPEPTPEPIPDPEPTPEPEPEPVPTKTGYLTLGGSQRVTGATCNGESSDGFTFKPGEDVTCVAGNTTIATFNTQSEAARSLRAVEKVSFSLEDAQELAGSDDKKSNAVSLVTSSNSCPANTEQVCLTFSSVIESKRFDSLYKQIDLAPEEFKKLVNEEVENNAATDKAPSTHTSPVVPVTTPGTKPDLNASFVSANAEQFYQYQPTEIILSEGRLVDSQGYGVAGVNYYTNSGRGVTGENGEFSFSWGEAISFGIDTFELGSVRGNKSTIALTELGDEVRGANIDQLIHRYSTTGQNNTRVVPDDVRKVFAEYPNVINEIINLSLSNGATLGEGEQVVNLPNEFIEQFNTGQAKEIDTAICAKTDGCNEARWFSLTTRNVNDGQIQGVINKLWGVDTNYKSVSKFHVFHDSTNFYGSTGNARGQAVVNISNAAFPILMARNDKNYWLAFGEKRAWDKNELAYITEAPSIVRPENVTRETASFNLPFISLGQVGDGKLMVIGNPHYNSILRCPNGYSWNGGVNKDGQCTLNSDPDDMKNFMENVLRYLSNDRWLPDAKSSMTVGTNLETVYFKKHGQVLGNSAPFAFHKDFTGITVKPMTSYGNLNPDEVPLLILNGFEYVTQWGSDPYSIPLRADTSKPKLTQQDVTDLIAYMNKGGSVLIMENVMSNLKEESASGFVRLLDAAGLSMALNKSVVNNDPQGYPDRVRQRRSTPIWVYERYPAVDGKPPYTIDDTTKEVIWKYQQENKPDDKPKLEVASWQEEVEGKQVTQFAFIDEADHKTPESLAAAKQRILDAFPGLEVCKDSDYHYEVNCLEYRPGTDVPVTGGMYVPQYTQLDLSADTAKAMLQAADLGTNIQRLYQHELYFRTNGRQGERLNSVDLERLYQNMSVWLWNETKYRYEEGKEDELGFKTFTEFLNCYTNNAYVGTQCSAELKKSLIDNKMIYGEESSKAGMMNPSYPLNYMEKPLTRLMLGRSWWDLNIKVDVEKYPGVVNTNGETVTQNINLYSAPTKWFAGNMQSTGLWAPAQQEVSIESKSTVPVTVTVALADDLTGREKHEVSLNRPPRVTKTYDLKANDKVTFKVPYGGLIYIKGDSKEVQSADFTFTGVVKAPFYKDGKWQHDLNSPAPLGELESASFVYTTPKKNLNASNYTGGLEQFANDLDTFASSMNDFYGRDSEDGKHRMFTYKNLPGHKHRFANDVQISIGDAHSGYPVMNSSFSPNSTTLPTTPLNDWLIWHEVGHNAAETPLTVPGATEVANNVLALYMQDRYLGKMNRVADDITVAPEYLEESNGQAWARGGAGDRLLMYAQLKEWAEKNFDIKKWYPDGTPLPEFYSEREGMKGWNLFQLMHRKARGDEVSNDKFGGKNYCAESNGNAADTLMLCASWVAQTDLSEFFKKWNPGANAYQLPGASEMSFEGGVSQSAYNTLASLDLPKPEQGPETINQVTEHKMSAE",glycan array binding signal (z-score),[1],0.654
same,glycan array binding signal (z-score),[2],0.923
same,glycan array binding signal (z-score),[3],-1.22
same,glycan array binding signal (z-score),[4],0.559
same,glycan array binding signal (z-score),[5],2.23
same,glycan array binding signal (z-score),[6],1.68
same,glycan array binding signal (z-score),[7],-0.172
same,glycan array binding signal (z-score),[8],2.84
same,glycan array binding signal (z-score),[9],1.8
same,glycan array binding signal (z-score),[10],-0.29
same,glycan array binding signal (z-score),[11],-0.13
same,glycan array binding signal (z-score),[12],0.415
same,glycan array binding signal (z-score),[13],0.215
same,glycan array binding signal (z-score),[14],0.193
same,glycan array binding signal (z-score),[15],0.488
same,glycan array binding signal (z-score),[16],-0.193
same,glycan array binding signal (z-score),[17],-1.28
same,glycan array binding signal (z-score),[18],-0.511
same,glycan array binding signal (z-score),[19],-0.481
same,glycan array binding signal (z-score),[20],0.12
same,glycan array binding signal (z-score),[21],-0.471
same,glycan array binding signal (z-score),[22],-0.433

# Source: the supplement of paper PMC8728848
